Data: PubChem BioAssay AID2685 (National Center for Advancing Translational Sciences (NCATS), 2010)
This is one part of the list. Shown are side measurements of this screen, not its main read-out; they come without a call. Most of these compounds were active or inconclusive in the main read-out, so they are no random draw. Potencies come from curve fits of mixed quality, noted in brackets.

Test: qHTS Assay for Lipid Storage Modulators in Drosophila S3 Cells;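 on cell number change: cells counted by Cell Tracker Red CMTPX staining in the red channel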
Conditions: BODIPY lipid droplet fluorescence, 18-24 h; for cell number change: measured here: cell count max response, cells fed with added oleic acid
Outline: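 Drosophila S3 cells loaded with oleic acid (400 uM, as added) and compounds at several concentrations; lipid droplets imaged by 488-nm laser-scanning cytometry, 500–530 nm intensity and object ratio to cell channel. Percent activity normalized to 20 uM Triacsin C.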

[1] = measured here: cell number channel AC50, cells fed with added oleic acid
[2] = measured here: lipid fluorescence (Fed channel) AC50, cells fed with added oleic acid

Row | SMILES | cell number change [%] | AC50 [1] | AC50 [2]
1 | CN(C)S(=O)(=O)c1ccc2c(c1)nc(CCC(=O)NCCc1ccc(Cl)cc1)n2C | 12.1 |  | 
2 | O=C(CSc1nc(NS(=O)(=O)c2ccccc2)cc(=O)[nH]1)Nc1ccc(F)cc1 | -38.5 | 23.1 µM [falling, partial curve] | 
3 | CC(C)Nc1nc(-c2ccccc2)nnc1-c1ccccc1 | -12.3 |  | 
4 | Cc1oc(-c2ccccc2F)nc1CS(=O)(=O)CC(=O)N1CCN(c2ccccc2)CC1 | -13.7 |  | 0.82 µM [rising, single point]
5 | COc1cc(/C=C/C(=O)CC(=O)/C=C/c2ccc(O)c(OC)c2)ccc1O | -86.3 | 18.4 µM [falling, single point] | 16.4 µM [falling, single point]
6 | O=c1c(Oc2ccccc2F)coc2cc(OCc3cnn(-c4ccccc4)c3)ccc12 | -48.8 | 25.9 µM [falling, single point] | 0.103 µM [falling, full curve, poor fit]
7 | O=C(Nc1ccccc1C(F)(F)F)NC1CCCCC1 | 25.4 |  | 
8 | Cc1cc(C(=O)CCC(=O)NCc2ccccc2F)c(C)s1 | 9.64 |  | 
9 | O=C(NCc1ccc(Cl)cc1)c1ccc(CSc2nc3ccncc3[nH]2)cc1 | 5.98 |  | 0.116 µM [falling, full curve, poor fit]
10 | CCCCC(CC)C(=O)Nc1ccccc1C#N (stereo not drawn) |  | 4.61 µM [rising, single point] | 
11 | O=C(Nc1cccnc1)Nc1cccc(F)c1 | -14.9 |  | 5.17 µM [rising, full curve, poor fit]
12 | CC(C)CN(C(=O)CN1CCN(c2cccc(Cl)c2)CC1)c1c(N)n(CC(C)C)c(=O)[nH]c1=O | -17.8 | 4.11 µM [falling, partial curve] | 4.11 µM [falling, partial curve]
13 | COc1ccc(C(=O)N2CCC(n3c(C)nc4cc(F)ccc43)CC2)cc1OC | 8.94 |  | 8.2 µM [falling, partial curve, poor fit]
14 | COC(=O)c1nn(-c2ccc(-c3ccccc3)cc2)cc1O | -11.6 |  | 
15 | COc1ccc(-c2cc(C(=O)Nc3cc(Br)ccc3O)no2)cc1 |  |  | 1.84 µM [falling, partial curve]
16 | Cc1ccc(C(=O)N/C(=C/c2ccc(-c3cc(C(F)(F)F)ccc3Cl)o2)C(=O)NCc2cccnc2)cc1 | 6.01 |  | 1.3 µM [rising, full curve, poor fit]
17 | Cc1cc(C)c(OCCCCN2CCNCC2)c(C)c1 | -6.82 |  | 29.1 µM [rising, single point]
18 | CC1CCCCN1Cc1c(O)ccc2c(=O)c(-c3nc4ccccc4s3)c(N)oc12 (stereo not drawn) | 18.8 |  | 
19 | CN1/C(=C\C(=O)Nc2cccc(Cl)c2)C(C)(C)c2ccccc21 | -28.7 |  | 16.4 µM [falling, single point]
20 | CCOc1ccc(Cc2nnc(SCC(N)=O)n2C)cc1 | -34.6 | 0.731 µM [falling, full curve] | 6.51 µM [falling, single point]

Row | SMILES | cell number change [%] | AC50 [1] | AC50 [2]
21 | COc1ccc(Cn2c(O)c(/C=C3/C=CC=N3)c(=O)[nH]c2=O)cc1 | -1.38 |  | 7.31 µM [rising, partial curve, poor fit]
22 | COc1ccc(O)c(/C=N/N2CCCCC2)c1 |  | 6.51 µM [falling, partial curve, poor fit] | 
23 | COC(=O)N/N=C\c1ccccc1OC/C=C/c1ccccc1 |  |  | 6.51 µM [rising, single point]
24 | CC1=C(C(=O)NCCN2CCOCC2)C2(CCC(C)CC2)OC1=O (stereo not drawn) | -22.4 |  | 23.1 µM [falling, partial curve]
25 | COc1ccccc1NC(=O)Cn1c(CCC(=O)O)ccc1-c1ccc(C)cc1 | 6.87 |  | 0.00461 µM [falling, full curve, poor fit]
26 | Cc1ccc(S(=O)(=O)CC2CSc3nc4ccccc4n32)cc1 (stereo not drawn) | -64.5 | 18.4 µM [falling, single point] | 5.8 µM [falling, full curve]
27 | CC(=O)c1cccc(NC(=O)NCCc2ccc(Cl)cc2)c1 | 2.48 |  | 
28 | CC(=O)c1cccc(NC(=O)CCNS(=O)(=O)c2cccc3nonc23)c1 |  | 0.517 µM [falling, single point] | 0.651 µM [falling, single point]
29 | CCn1c(SCC(=O)N/N=C/c2ccc(C)s2)nc2ccccc21 | 12.4 |  | 23.1 µM [falling, partial curve]
30 | Cn1c(CNC(=O)c2ccco2)nnc1SCC(=O)Nc1c(F)cc(F)cc1Br | -12.9 |  | 1.84 µM [rising, single point]
31 | O=C(CN(c1ccccc1)S(=O)(=O)c1ccccc1[N+](=O)[O-])Nc1cccnc1 | 13.7 |  | 0.13 µM [rising, full curve, poor fit]
32 | Cc1cccc(NC(=O)c2sc(-c3ccccc3)nc2-c2ccc([N+](=O)[O-])cc2)c1 | 46.3 | 29.1 µM [rising, single point] | 29.1 µM [falling, single point]
33 | C=CCNC(=O)c1ccccc1NS(=O)(=O)c1ccc(SC)cc1 | 124 | 18.4 µM [rising, partial curve] | 18.4 µM [rising, partial curve]
34 | COc1ccccc1N1CCN(C(=O)COc2ccc(C)cc2Br)CC1 | 17.7 |  | 
35 | CC1CCN(C(=O)CSc2nnc(-c3cc4ccccc4cc3O)n2Cc2ccco2)CC1 | -4.26 |  | 
36 | COC(=O)c1[nH]c2cc(OC)ccc2c1NC(=O)CN1CCN(c2cccc(C)c2)C(C)C1 (stereo not drawn) | -37.1 | 20.6 µM [falling, partial curve, poor fit] | 
37 | Cn1ncc(Cl)c1C(=O)NCc1ccco1 | -13.3 |  | 6.51 µM [falling, single point]
38 | CCC(C(=O)OCC(=O)Nc1ccc(C(N)=O)cc1)c1ccccc1 (stereo not drawn) | 28.6 | 0.82 µM [rising, full curve, poor fit] | 6.51 µM [rising, partial curve, poor fit]
39 | C/C(=N\NC(=O)c1ccn(C)n1)c1ccc(NC(=O)C2CCCC2)cc1 | -0.959 |  | 0.103 µM [falling, full curve, poor fit]

Among those listed so far, 2 have a thiophene ring, fused or not.
Row | SMILES | cell number change [%] | AC50 [1] | AC50 [2]
8 | Cc1cc(C(=O)CCC(=O)NCc2ccccc2F)c(C)s1 | 9.64 |  | 
29 | CCn1c(SCC(=O)N/N=C/c2ccc(C)s2)nc2ccccc21 | 12.4 |  | 23.1 µM [falling, partial curve]
